Results: PMC9918736

Protein sequences, listed by entry. Tags and fused reporters are not part of them. Lines headed by an entry give the natural chain unless they say otherwise; changes in a name come on top. Residues count along the entry.
UniProt Q8VI56, residues 21-1725: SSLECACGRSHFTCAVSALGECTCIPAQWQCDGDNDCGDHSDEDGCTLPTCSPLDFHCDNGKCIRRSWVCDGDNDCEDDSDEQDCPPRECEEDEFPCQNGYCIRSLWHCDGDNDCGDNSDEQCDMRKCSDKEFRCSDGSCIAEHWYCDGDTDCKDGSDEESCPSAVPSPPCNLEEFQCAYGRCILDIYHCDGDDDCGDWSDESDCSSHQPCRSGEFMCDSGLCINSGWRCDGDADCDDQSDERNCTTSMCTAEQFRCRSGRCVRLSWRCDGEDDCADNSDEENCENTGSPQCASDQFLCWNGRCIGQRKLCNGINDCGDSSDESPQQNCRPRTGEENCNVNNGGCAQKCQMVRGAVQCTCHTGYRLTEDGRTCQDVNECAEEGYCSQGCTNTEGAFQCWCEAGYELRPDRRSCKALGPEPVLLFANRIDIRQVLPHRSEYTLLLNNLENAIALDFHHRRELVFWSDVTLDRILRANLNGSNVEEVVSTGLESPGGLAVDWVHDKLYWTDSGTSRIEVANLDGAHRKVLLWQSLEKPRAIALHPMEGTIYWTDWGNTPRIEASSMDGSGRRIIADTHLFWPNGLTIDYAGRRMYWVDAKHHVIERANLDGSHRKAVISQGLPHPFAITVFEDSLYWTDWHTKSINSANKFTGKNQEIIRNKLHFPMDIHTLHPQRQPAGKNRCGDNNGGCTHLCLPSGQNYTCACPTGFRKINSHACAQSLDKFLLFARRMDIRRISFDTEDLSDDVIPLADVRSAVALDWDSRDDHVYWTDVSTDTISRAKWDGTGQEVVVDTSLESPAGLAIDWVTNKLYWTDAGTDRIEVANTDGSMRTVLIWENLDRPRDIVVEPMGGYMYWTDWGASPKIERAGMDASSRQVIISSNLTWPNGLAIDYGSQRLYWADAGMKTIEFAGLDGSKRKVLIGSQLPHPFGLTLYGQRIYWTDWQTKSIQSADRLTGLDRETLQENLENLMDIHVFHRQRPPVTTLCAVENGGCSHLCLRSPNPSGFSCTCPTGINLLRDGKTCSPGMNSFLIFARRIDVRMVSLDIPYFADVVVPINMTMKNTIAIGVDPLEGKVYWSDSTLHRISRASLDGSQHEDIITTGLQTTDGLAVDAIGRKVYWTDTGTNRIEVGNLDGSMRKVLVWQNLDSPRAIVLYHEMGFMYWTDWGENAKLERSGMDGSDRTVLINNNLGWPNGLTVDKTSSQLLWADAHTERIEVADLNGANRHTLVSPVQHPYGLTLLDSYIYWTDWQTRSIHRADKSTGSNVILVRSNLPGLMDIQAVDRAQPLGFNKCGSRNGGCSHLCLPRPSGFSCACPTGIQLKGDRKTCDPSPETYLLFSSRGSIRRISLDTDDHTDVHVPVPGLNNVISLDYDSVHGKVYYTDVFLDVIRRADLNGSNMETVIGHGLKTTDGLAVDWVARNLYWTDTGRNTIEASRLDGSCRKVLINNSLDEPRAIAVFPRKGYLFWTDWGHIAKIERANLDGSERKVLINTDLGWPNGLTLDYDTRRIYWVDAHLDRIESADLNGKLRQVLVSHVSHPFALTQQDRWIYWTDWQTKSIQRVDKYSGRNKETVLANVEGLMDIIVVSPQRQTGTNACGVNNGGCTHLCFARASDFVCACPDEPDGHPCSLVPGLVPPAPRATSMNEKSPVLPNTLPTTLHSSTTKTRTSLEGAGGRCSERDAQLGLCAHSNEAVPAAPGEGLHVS

Assays:
Experiment in all cases: co-IP; HEK293 cells co-transfected with APP constructs and Flag-tagged LRP4 ECD constructs; lysates in modified RIPA buffer (150 mM NaCl, 2.5 mM EDTA, 50 mM Tris-HCl) incubated with anti-Flag beads 4-5 h or overnight at 4 °C; immunocomplexes probed with anti-APP antibody
Flag-LRP4 ECD Δβ2 = Flag-LRP4 ECD Δβ2 (UniProt Q8VI56)
Flag-LRP4 ECD Δβ4 = Flag-LRP4 ECD Δβ4 (UniProt Q8VI56)
Flag-LRP4 ECD Δβ3 = Flag-LRP4 ECD Δβ3 (UniProt Q8VI56)
Flag-LRP4 ECD Δβ1 = Flag-LRP4 ECD Δβ1 (UniProt Q8VI56)
Flag-tagged ECD of LRP4 = Flag-tagged ECD of LRP4 (UniProt Q8VI56)

Q: “GFP-APP (amyloid precursor protein) (from UniProt P12023 18-770)” was tested. Which binding (Flag-LRP4 ECD Δβ2) did it give?
A: binds

Q: And the binding (Flag-LRP4 ECD Δβ4)?
A: binds

Q: What about the binding (Flag-LRP4 ECD Δβ3) of the same substance?
A: binds

Q: What about the binding (Flag-LRP4 ECD Δβ1) of the same substance?
A: binds

Q: GFP-APP ΔE1 (from UniProt P12023) was tested. Which binding (Flag-tagged ECD of LRP4) did it give?
A: no binding

No constants are given. Whether binding was seen depends on the method and setting. In cells and extracts the contact can be indirect. For some assays here: A result given as binding can be weak or reduced; the word gives no strength.
